Results are given in words; binding and its absence hold for the method and conditions named. In cells and extracts the contact can be indirect. Here binding means that the protein was enriched with, or labelled near, the bait; the list need not be complete. Where a sequence is shown, tags or fusion partners need not be part of it.
Biological target: T1, FLAG-BirA^R118G-HAUS6 (UniProt Q7Z4H7)
T1 sequence: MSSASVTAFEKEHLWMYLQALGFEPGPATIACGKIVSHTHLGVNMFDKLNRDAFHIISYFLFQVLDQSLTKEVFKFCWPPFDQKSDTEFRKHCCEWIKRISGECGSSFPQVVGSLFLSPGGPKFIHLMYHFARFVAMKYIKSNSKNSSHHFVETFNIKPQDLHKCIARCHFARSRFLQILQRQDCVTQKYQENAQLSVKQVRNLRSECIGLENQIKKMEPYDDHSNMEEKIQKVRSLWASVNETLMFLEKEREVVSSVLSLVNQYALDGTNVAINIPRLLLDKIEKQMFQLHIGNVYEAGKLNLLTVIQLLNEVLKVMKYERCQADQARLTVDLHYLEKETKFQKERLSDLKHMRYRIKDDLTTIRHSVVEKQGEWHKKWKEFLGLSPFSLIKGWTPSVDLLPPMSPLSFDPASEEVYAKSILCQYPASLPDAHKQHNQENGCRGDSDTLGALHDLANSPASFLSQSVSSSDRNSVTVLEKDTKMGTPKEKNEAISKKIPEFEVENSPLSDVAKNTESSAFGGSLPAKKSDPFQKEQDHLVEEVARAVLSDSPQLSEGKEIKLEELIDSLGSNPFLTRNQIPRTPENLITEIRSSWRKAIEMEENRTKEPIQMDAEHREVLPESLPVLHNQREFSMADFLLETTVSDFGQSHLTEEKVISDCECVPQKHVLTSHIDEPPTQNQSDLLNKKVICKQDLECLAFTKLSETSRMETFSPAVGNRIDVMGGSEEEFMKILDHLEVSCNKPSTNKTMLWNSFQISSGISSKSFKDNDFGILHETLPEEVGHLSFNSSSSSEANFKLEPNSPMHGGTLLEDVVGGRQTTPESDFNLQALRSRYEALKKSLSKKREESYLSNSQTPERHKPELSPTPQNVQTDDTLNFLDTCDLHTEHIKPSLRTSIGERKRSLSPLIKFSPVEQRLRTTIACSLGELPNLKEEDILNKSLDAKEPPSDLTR
Test: proximity labelling; BioID: U2OS cells stably expressing BirA-HAUS6 (BirA alone as negative control), 50 μM biotin overnight, lysis in RIPA buffer, streptavidin agarose capture of biotinylated proteins, mass spectrometry, SAINTexpress (BFDR ≤ 0.02, FC ≥ 3); performed once

The chains behind the UniProt entries cited, without tags or fusion partners.
UniProt Q96CW5: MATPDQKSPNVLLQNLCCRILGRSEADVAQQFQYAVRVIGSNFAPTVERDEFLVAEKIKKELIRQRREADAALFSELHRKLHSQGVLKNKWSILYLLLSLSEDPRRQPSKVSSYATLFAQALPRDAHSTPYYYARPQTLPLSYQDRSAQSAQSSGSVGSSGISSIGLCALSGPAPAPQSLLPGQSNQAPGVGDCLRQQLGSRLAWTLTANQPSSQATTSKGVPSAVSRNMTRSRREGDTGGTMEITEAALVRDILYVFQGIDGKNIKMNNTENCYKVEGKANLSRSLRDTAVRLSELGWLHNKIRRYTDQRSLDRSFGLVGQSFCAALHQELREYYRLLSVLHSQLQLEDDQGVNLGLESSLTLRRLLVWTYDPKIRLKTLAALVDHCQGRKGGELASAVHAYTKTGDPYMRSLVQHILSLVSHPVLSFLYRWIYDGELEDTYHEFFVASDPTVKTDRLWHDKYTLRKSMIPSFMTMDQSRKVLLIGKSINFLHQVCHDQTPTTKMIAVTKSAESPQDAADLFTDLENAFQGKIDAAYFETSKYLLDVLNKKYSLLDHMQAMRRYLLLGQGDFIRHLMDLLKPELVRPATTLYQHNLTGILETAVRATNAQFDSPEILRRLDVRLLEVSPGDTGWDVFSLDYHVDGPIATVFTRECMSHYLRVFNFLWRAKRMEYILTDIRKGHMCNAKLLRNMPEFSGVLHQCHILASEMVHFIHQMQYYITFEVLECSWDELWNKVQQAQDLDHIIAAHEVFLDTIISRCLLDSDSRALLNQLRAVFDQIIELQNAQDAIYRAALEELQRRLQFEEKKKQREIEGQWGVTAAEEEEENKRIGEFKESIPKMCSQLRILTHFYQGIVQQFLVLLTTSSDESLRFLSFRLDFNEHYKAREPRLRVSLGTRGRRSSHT

binding: binds
Substance: γTuRC subunit GCP3 (from UniProt Q96CW5 1-907)

— PMC8519919
